The campaign covered roughly 52,000 sequences. About 210 (0.4%) were called active.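 Rule for the calls: active = gene whose silencing raises cell survival under the drug, median off-target-corrected z-score across its silencing RNAs 2 or more; inactive = the rest.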 Some of the results follow.

The nature of this experiment: Resistance to Poly (ADP-Ribose) Polymerase inhibitor: Gene Identification via Genome-wide siRNA Screen. The following applies: mouse BRCA2 R2336H ES cells, olaparib, CellTiter-Glo viability; hits give high values. The method, boiled down: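 Mouse BRCA2 R2336H ES cells were reverse-transfected with siRNA (20 nM final), treated at 48 h with 500 nM olaparib, and read by CellTiter-Glo after 72 h. Scores: MAD-based z per siRNA, median per gene, seed off-target correction.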
Consider CCAUAACAGACCAGAUUCGTT against Gtf2h4, for which the z-score is inactive: 0.567.
Under CCCAGAGAUAAAGACGGGCTT against B4galt1 stands inactive: 0.28.
As to GGGCUUUAUACCCUACGAATT against Ceacam13, the z-score is inactive: -0.00689.
The value for GGAGUCUGAUCAAUGGAAUTT against Hsd17b13 was inactive: 0.502; that for GGAGAGAGUGACCUUAAAUTT against Olfr818 was inactive: -0.0207; that for GGCCUCUGAGGACAAGUUUTT against BC022645 was inactive: -0.77.
Take GAGAGAGAGAGAAAAUCUGTT against Klra1: the z-score was inactive: -0.426.
On to “GCCGAGUUUACUUGUUUGATT against 4932702D22Rik”, for which the z-score is inactive: 0.874.
Under GGUGAAUUGAAGCAGUCCUTT against Gpr44 stands inactive: 0.0213; under “GGAAAAUUGGACCAAUUUCTT against E130307J04Rik”, inactive: 0.528; under CCUUUAGAGUUUGAUCUGCTT against Cebpg, inactive: 0.389.
Under GGUGUAUGCGUCACUAGAATT against Rxra stands inactive: -1.74; under GGAAAAGGAAAAGAAGAAGTT against Brd3, inactive: -0.345; under GCUGUGUGCCACUUUAUGUTT against Ebna1bp2, inactive: -0.0364.
For the sequence GGGAUACCUCAUUUUUUCUTT against Olfr107, the z-score was inactive: -0.338.
GGAGAAAACCAUCUUGGUUTT against Olfr284: the z-score is inactive: 0.188.
On to GGCACAGAAGAAUGAGAGATT against Schip1, for which the z-score was inactive: -0.617.
For the sequence CCGUCCUGCAUCGGAUUUATT against Ppp2r5a, the z-score was inactive: -0.0072.
For GGUCCGAGAACAUCAUCGATT against C77032, the z-score was inactive: -1.1.
Turning to “GCAAGUCCGGAUGUAAGGATT against A530001H01Rik”, the z-score is inactive: -3.16.
For the sequence GGCCUUUGCAUGCAAUAGUTT against BC031441, the z-score is inactive: 0.737.
The value for CCUACGCAGCAUGUGUGAATT against Exosc4 was inactive: -0.551; that for “GGAAGUGGCUGUUGCUUCUTT against 9230106L18Rik” was inactive: -0.403.
Under GGUCUCAGAGCUACAUCCCTT against Plekha2 stands inactive: 1.26.
Take CCAAAGACAUCUCACACAGTT against Tgfb1: the z-score is inactive: -1.34.
Under GGGCCUGUACAUCUUCCAATT against Anpep stands inactive: 0.48; under CCUCUAUGGUCUGCCUCAUTT against Spint2, inactive: 1; under “GGAAUUUGGAAAGAUCUAUTT against B930018B01”, inactive: -0.496.

For the origin of these results see PubChem BioAssay AID1347423 (Functional Genomics Laboratory (NCATS/FGL), 2020).
